In patent US20210087268A1:
No constants are given. Whether binding was seen depends on the method and setting. Some results given as binding are weak or reduced against the parent protein; the word gives no strength.

Molecular target: RsTIGIT-Fc (Macaca mulatta)
Assay: ELISA, antigen coated on the plate, 30 ng antibody per well (one amount), absorbance 450 nm

- binding: binds
B1: S64 (IgG1 form) (antibody, V domains shown)
VH: EVQLLESGGGLVQPGGSLRLSCAASGFTFSNYAMSWVRQAPGKGLEWVSAIYPGGGSIYYADSVKGRFTISRDNSKNTLYLQMNSLRAEDTAVYYCAKAIRTCSLSHCYYYYGMDVWGQGTLVTVSS
VL: QSVLTQPPSASGTPGQRVTISCSCSSSNIGNNAVSWYQQLPGTAPKLLIYYDSNRPSGVPDRFSGSKSGTSASLAISGLRSEDEADYYCGSWDYSLSAYVFGGGTKLTVLG
